Results: PubChem BioAssay AID504444 (National Center for Advancing Translational Sciences (NCATS), 2011)
Hit rate of the full screen: of about 360,000 compounds, about 7,500 (2.1%) were called active. Inconclusive means that the source gave no clear call. Such entries were picked first, then a sample of the others. Calls follow the shape of the dose curve; as a rule, active = well fitted inhibition curve with a large enough effect; inconclusive = small, poorly fitted or top-dose-only effect, or effect the other way; inactive = flat fitted curve, though single readings scatter. A potency beside an inconclusive call is a rough fit, not a confirmed value.

Assay: Nrf2 qHTS screen for inhibitors; also: nearly all actives have a fitted effect of over 60% in size
Conditions: A549 ARE-Fluc reporter, luciferase luminescence, 18-24 h; activity change, negative = inhibition: at 46 µM (top of the series)
In short: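 Cells were seeded and rested 2 h, then exposed to compounds for 18-24 h. CellTiter-Fluor was read first as a viability measure. BugLite was added 15 min before the final luminescent read of ARE-luciferase activity in A549 cells.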
% is scaled to controls: 0 for no effect and ±100 for the full control effect; potency is read from the fitted curve at half-maximal effect.

Row | SMILES | activity change, negative = inhibition | Potency
1 | O=C(COc1ccccc1)Nc1ccc(-c2ccc(N3CCOCC3)nn2)cc1 | inactive: 7.25% | –
2 | COc1ccc(NS(=O)(=O)c2ccc3c(c2)CCC(=O)N3)c(OC)c1 | – | inconclusive: 4.61 µM [falling, full curve]
3 | COc1ccccc1OCCNc1nc2c(c(=O)n(C)c(=O)n2C)n1C | – | inconclusive: 7.31 µM [falling, partial curve, poor fit]
4 | COc1cc(OC)c(NC(=O)C(c2ccccc2)N2Cc3ccccc3C2=O)cc1Cl (stereo not drawn) | inactive: -7.78% | –
5 | O=C(NCCC1=CCCCC1)C(=O)NCC1OCCCN1S(=O)(=O)c1ccccc1 (stereo not drawn) | inactive: -6.45% | –
6 | CCCc1c(C)nc2ccccc2c1SCCC#N | – | inconclusive: 10.3 µM [falling, partial curve]
7 | CCOc1ccc(N2CC(c3nc4ccccc4n3CCCOc3ccccc3OC)CC2=O)cc1 (stereo not drawn) | – | inconclusive: 18.4 µM [falling, single point]
8 | CCc1nnc(SCc2cccc(F)c2)c2cc3sc(C)cc3n12 | – | inconclusive: 16.4 µM [falling, partial curve, poor fit]
9 | c1csc(-c2nnc(N3CCOCC3)c3ccccc23)c1 | – | inconclusive: 11.6 µM [falling, partial curve, poor fit]
10 | CCC(Sc1nc(-c2cccc(OC)c2)c(C#N)c(=O)[nH]1)C(=O)Nc1nnc(C(C)C)s1 (stereo not drawn) | – | inconclusive: 0.92 µM [falling, partial curve, poor fit]
11 | O=C(Nc1ccc(F)c(Cl)c1)C1CCN(C(=O)c2ccc(F)cc2)CC1 | inactive: 14.1% | –
12 | N#Cc1ccccc1Cn1c(=O)n(CCCC(=O)NCc2ccccc2Cl)c(=O)c2ccccc21 | – | inconclusive: 2.59 µM [falling, partial curve, poor fit]
13 | Cc1cccc(C(=O)OC(C)CN2CCN(C)CC2)c1 (stereo not drawn) | – | inconclusive: 3.26 µM [activator, partial curve, poor fit]
14 | COc1ccc(Cl)cc1NC(=O)CSC1=Nc2ccccc2C2=NC(CCC(=O)NCc3ccc(F)cc3)C(=O)N12 (stereo not drawn) | – | active: 3.66 µM
15 | CC(C)c1ccc(/C=C/C(=O)Nn2cnnc2)cc1 | – | inconclusive: 8.2 µM [activator, partial curve]
16 | O=C(N/N=C/c1ccco1)c1ccc(NC(=O)c2ccc(Cl)cc2)cc1 | – | inconclusive: 29.1 µM [activator, single point]
17 | O=C(CCSc1ccc(Cl)cc1)c1ccco1 | inactive: -9.95% | –
18 | O=C(CN1C(=O)COc2ccccc21)NCCCN1CCOCC1 | – | inconclusive: 14.6 µM [activator, partial curve, poor fit]
19 | Cc1cccc(NS(=O)(=O)c2ccc(-c3cnc(C4CC4)o3)cc2)c1 | – | inconclusive: 0.146 µM [falling, full curve, poor fit]
20 | COc1cccc(NC(=O)c2cc(C(=O)Nc3cccc(OC)c3)n(C)n2)c1 | – | inconclusive: 11.6 µM [falling, partial curve, poor fit]
21 | Cc1ccccc1NC(=S)NCc1ccc(F)cc1 | – | inconclusive: 13 µM [falling, partial curve, poor fit]
22 | CCCCCCCCNc1ccccc1S(=O)(=O)NCc1ccccc1 | inactive: -0.371% | –

One compound at a time, from the list above:
CCc1nnc(SCc2cccc(F)c2)c2cc3sc(C)cc3n12 reads Potency: inconclusive: 16.4 µM [falling, partial curve, poor fit]
COc1ccc(Cl)cc1NC(=O)CSC1=Nc2ccccc2C2=NC(CCC(=O)NCc3ccc(F)cc3)C(=O)N12 (stereo not drawn) reads Potency: active: 3.66 µM

Going on with the list:

Row | SMILES | activity change, negative = inhibition | Potency
23 | NNC(=O)CCCCCCCCCCOCCCCO | – | inconclusive: 14.6 µM [falling, partial curve, poor fit]
24 | Cc1ccc(NC(=O)c2noc3c2CCC3)cc1C | – | inconclusive: 1.84 µM [activator, full curve]
25 | C=CCC[C@H](Cc1ccc(F)cc1)C(=O)OC[C@@H](Cc1c[nH]c2ccccc12)NC(=O)[C@@H](CC=C)CC(=O)N(CCO)Cc1ccccc1 | – | active: 9.2 µM
26 | CS(=O)(=O)N1CCN(c2ccc([N+](=O)[O-])c(NCc3ccccc3)c2)CC1 | – | inconclusive: 32.6 µM [falling, single point]
27 | CCOc1cc(C(=O)Nc2ccc3nc(Nc4cccc(Cl)c4)cc(C)c3c2)cc(OCC)c1OCC | inactive: -5.12% | –
28 | CC(=O)C1=C(C)NC(=O)CC1c1ccc(Br)cc1 (stereo not drawn) | inactive: -1.8% | –
29 | Cc1nn2c(C)c(C(=O)N3CCN(c4ccccc4F)CC3)cnc2c1-c1ccc(F)cc1 | – | inconclusive: 29.1 µM [activator, single point]
30 | CNc1oc(/C=C/c2ccccc2)nc1C#N | – | inconclusive: 9.2 µM [activator, partial curve]
31 | COc1cccc(CN(C(=O)COc2ccc(Cl)cc2)C2CCS(=O)(=O)C2)c1 (stereo not drawn) | – | inconclusive: 23.1 µM [falling, partial curve, poor fit]
32 | CCC(C)NC(=O)CCc1c(C)nc2c(c(C)nn2-c2ccccc2)c1C (stereo not drawn) | – | inconclusive: 16.4 µM [falling, partial curve, poor fit]
33 | Cc1cccc(Sc2c(C=O)c3ccccc3n2C)c1 | – | inconclusive: 32.6 µM [falling, single point]
34 | O=c1c(O)c(-c2ccc(O)c(O)c2)oc2cc(O)ccc12 | – | active: 11.6 µM
35 | COc1ccc(-c2nc(C(N)=O)c3[nH]c(=O)n(-c4cccc(Cl)c4)c3n2)cc1OC | – | active: 25.9 µM
36 | Cc1ccc(S(=O)(=O)Nc2cccc(C(=O)NCC(c3ccco3)N3CCCCC3)c2)cc1F (stereo not drawn) | – | inconclusive: 29.1 µM [falling, single point]
37 | O=C(Nc1ccc(S(=O)(=O)N2CCOCC2)cc1)C1CCN(S(=O)(=O)c2ccccc2)CC1 | inactive: -22.5% | –
38 | OCC1(Cc2cccc(C(F)(F)F)c2)CCN(Cc2cc3ccccc3o2)CC1 | inactive: -4.02% | –
39 | CCCC(=O)NC(c1ccc(C)cc1)c1ccc2cccnc2c1O (stereo not drawn) | – | inconclusive: 25.9 µM [falling, single point]
40 | CCCC(CCC)C(=O)Nc1cccc(-c2nc3cccnc3s2)c1C | – | inconclusive: 1.64 µM [activator, partial curve, poor fit]
41 | COc1ccc(N(CC(=O)Nc2cc([N+](=O)[O-])ccc2C)S(C)(=O)=O)cc1OC | inactive: -14.3% | –
42 | O=[N+]([O-])c1ccccc1OC/C(=N\O)c1ccccc1 | – | inconclusive: 29.1 µM [activator, single point]
43 | CCC(=O)N1CCc2cc(Br)cc(S(=O)(=O)N3CCCC(C(=O)Nc4cc(C)ccc4OC)C3)c21 (stereo not drawn) | inactive: 8.25% | –
